Not every detail of the peptide structures is certain; ends, links or a residue may be inferred. Residues, ends and D or L forms follow the SMILES beside them. *: point of attachment. Stearoyl = CCCCCCCCCCCCCCCCCC(=O)*
Columns and labels:
RII binding to AKAP110 = assay: RII overlay assay (modified western blot with 32P-labeled RII); conditions: for inhibition of RII binding to AKAP110: 20 μM peptide, densitometric scanning analysis
[1] = tested on: bovine caudal epididymal sperm; assay: Sperm motility by computer-automated sperm motility analysis (CASMA), Forward Motility Index; assay type: cell-based
Protocol: (A) Sperm were incubated in buffer A containing s-Ht31 at 5 μM (circle), 10 μM (square) or 50 μM (diamond) or a control peptide, S-Ht31-P at 50 μM (cross). Motility was assessed at the times indicated by computer-automated sperm motility analysis (CASMA) as described in Experimental Procedures. (B) Sperm were incubated for 5 min in buffer A containing increasing concentrations of S-Ht31 (diamonds) or control peptide S-Ht31-P (triangle) and motility was assessed.
(A) Bovine caudal epididymal sperm were suspended in buffer A supplemented with 2 mM calcium (+Calcium) or 2 mM EGTA (-Calcium). Motility was assessed by CASMA at 5, 30 and 60 min following addition of either water (control) or 10 μM s-Ht31. (B) Sperm were incubated in buffer A containing 2 mM calcium and 50 mM bicarbonate (where indicated). Motility was assessed at 5, 30 and 60 min following addition of either water (control) or 10 μM s-Ht31.
(A). Bovine caudal and caput sperm were incubated in buffer A in the presence or absence of 50 μM CDA and/or 50 μM H-89. When sperm were treated with both CDA and H-89, the H-89 was added 15 min prior to CDA. Motility was assessed by CASMA at 15 min following treatment. (B) Bovine sperm were incubated as described for A and then assessed for PKA activity. Where indicated, 10 μM cAMP was added to the PKA assay.
Sperm Preparation. Testes from mature bulls with intact tunica were obtained from a local slaughter house and sperm from caput or caudal epididymis were isolated and washed as previously described (Vijayaraghavan et al., Biol. Reprod. 32:489-500, 1985). The sperm were resuspended in buffer A (120 mM NaCl, 10 mM KCl, 10 mM Tris[hydroxymethyl]aminomethane (TRIS), pH 7.4) supplemented with 10 mM glucose and 10 mg/ml bovine serum albumin (BSA) for motility measurements. Monkey semen was obtained by electro-ejaculation and processed by procedures previously reported (Smith et al., Biol. Reprod 54:719-727, 1996). Human semen were obtained from a fertility clinic at the Oregon Health Sciences University.
Sperm Motility Measurement. Head motility parameters were determined as previously described (Vijayaraghavan et al., Biol. Reprod 54:709-718, 1996; Stephens et al., Biol. Reprod. 38:577-586, 1988). A 3-4 μL aliquot of sperm suspension (5×10^7 /ml) was loaded onto a counting chamber at 37° C. After bulk fluid movement had subsided, six different locations on the slide were recorded. The videotaped segments were analyzed by a computerized image-analysis system (CASMA) as previously described (Vijayaraghavan et al., Biol. Reprod. 54:709-718, 1996; Stephens et al., Biol. Reprod. 38:577-586, 1988). This computer system measures several parameters of head motion. In this report we have used Forward Motility Index (FMI) as a measure of motility. FMI is a product of percent motile (%M, percent of sperm moving at velocity greater than […]) and average velocity (Va, the five-point smoothed average of the head positions through at least 20 of the 30 frames analyzed).

| SMILES | inhibition of RII binding to AKAP110 (RII binding to AKAP110) | effect on RII binding to AKAP 110 (RII binding to AKAP110; overlay assay, result in words) | effect on sperm motility ([1]; concentrations up to 20 μM) | motility in medium depleted of external calcium by EGTA ([1]; 2 mM EGTA, 10 μM) | inhibition of motility in basal and bicarbonate-supplemented media ([1]; 2 mM calcium, 50 mM bicarbonate, 10 μM) | arrest of basal sperm motility ([1]; 5 to 50 μM, within three to five minutes after treatment) | recovery of motility after inhibition ([1]; calcium-containing media, over 30 to 60 minutes, 10 μM) | IC50 ([1]; motility measured five minutes post-treatment, read-out: concentration needed to produce 50% inhibition of motility) |
| --- | --- | --- | --- | --- | --- | --- | --- | --- |
| CCCCCCCCCCCCCCCCCC(=O)N[C@@H](CC(=O)O)C(=O)N[C@@H](CC(C)C)C(=O)N[C@H](C(=O)N[C@@H](CCC(=O)O)C(=O)N[C@@H](CCC(=O)O)C(=O)N[C@@H](C)C(=O)N[C@@H](C)C(=O)N[C@@H](CO)C(=O)N[C@@H](CCCNC(=N)N)C(=O)N1CCC[C@H]1C(=O)N[C@H](C(=O)N[C@@H](CC(=O)O)C(=O)N[C@@H](C)C(=O)N[C@H](C(=O)N1CCC[C@H]1C(=O)N[C@@H](CCC(=O)O)C(=O)N[C@@H](CCC(N)=O)C(=O)N[C@H](C(=O)N[C@@H](CCCCN)C(=O)N[C@@H](C)C(=O)N[C@@H](C)C(=O)NCC(=O)N[C@@H](C)C(=O)N[C@@H](Cc1ccc(O)cc1)C(=O)O)C(C)C)C(C)C)C(C)C)[C@@H](C)CC [s-Ht31-P] (Stearoyl-DLIEEAASRPVDAVPEQVKAAGAY-OH) | 0% | had no affect on RII binding | had no effect on sperm motility |  |  |  |  |  |
| CCCCCCCCCCCCCCCCCC(=O)N[C@@H](CC(=O)O)C(=O)N[C@@H](CC(C)C)C(=O)N[C@H](C(=O)N[C@@H](CCC(=O)O)C(=O)N[C@@H](CCC(=O)O)C(=O)N[C@@H](C)C(=O)N[C@@H](C)C(=O)N[C@@H](CO)C(=O)N[C@@H](CCCNC(=N)N)C(=O)N[C@H](C(=O)N[C@H](C(=O)N[C@@H](CC(=O)O)C(=O)N[C@@H](C)C(=O)N[C@H](C(=O)N[C@H](C(=O)N[C@@H](CCC(=O)O)C(=O)N[C@@H](CCC(N)=O)C(=O)N[C@H](C(=O)N[C@@H](CCCCN)C(=O)N[C@@H](C)C(=O)N[C@@H](C)C(=O)NCC(=O)N[C@@H](C)C(=O)N[C@@H](Cc1ccc(O)cc1)C(=O)O)C(C)C)[C@@H](C)CC)C(C)C)C(C)C)[C@@H](C)CC)[C@@H](C)CC [s-Ht31] | 85% |  |  | irreversible motility arrest | equally effective in inhibiting motility in both media | Complete arrest of motility | recovered spontaneously | ~1 µM |
